Measured values: paper PMC10127577
No constants are given. Whether binding was seen depends on the method and setting.

Target: CDTb protoxin (proCDTb), CDTb residues 43 to 876 (Clostridioides difficile) (UniProt O32739)
Test: SEC; CDTb oligomerization assay: 500 μg proCDTb at 1 mg/mL, untreated or with trypsin 1:20 (wt/wt) at 37°C for 20 min, with buffer or 2-fold molar excess of Fab; Superdex 200 Increase 10/300 GL in 20 mM Tris pH 8, 100 mM NaCl, 6 mM CaCl2; both purified

## CDTb protoxin (proCDTb), CDTb residues 43 to 876 (from UniProt O32739 43-876)
  binding: no binding
